Measurements taken from publication PMC6994238.
Results are given in words; binding and its absence hold for the method and conditions named. Some results given as binding are weak or reduced against the parent protein; the word gives no strength.

Chains of the proteins cited; added tags and fusions are not shown.
UniProt B1B601: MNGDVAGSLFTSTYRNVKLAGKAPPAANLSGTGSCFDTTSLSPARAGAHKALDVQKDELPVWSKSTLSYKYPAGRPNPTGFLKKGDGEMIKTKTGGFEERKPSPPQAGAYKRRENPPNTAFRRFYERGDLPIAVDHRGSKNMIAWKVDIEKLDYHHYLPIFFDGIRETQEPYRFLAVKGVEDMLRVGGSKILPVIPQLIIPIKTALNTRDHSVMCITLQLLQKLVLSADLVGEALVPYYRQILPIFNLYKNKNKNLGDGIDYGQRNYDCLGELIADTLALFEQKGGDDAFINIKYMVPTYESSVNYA
UniProt P04690: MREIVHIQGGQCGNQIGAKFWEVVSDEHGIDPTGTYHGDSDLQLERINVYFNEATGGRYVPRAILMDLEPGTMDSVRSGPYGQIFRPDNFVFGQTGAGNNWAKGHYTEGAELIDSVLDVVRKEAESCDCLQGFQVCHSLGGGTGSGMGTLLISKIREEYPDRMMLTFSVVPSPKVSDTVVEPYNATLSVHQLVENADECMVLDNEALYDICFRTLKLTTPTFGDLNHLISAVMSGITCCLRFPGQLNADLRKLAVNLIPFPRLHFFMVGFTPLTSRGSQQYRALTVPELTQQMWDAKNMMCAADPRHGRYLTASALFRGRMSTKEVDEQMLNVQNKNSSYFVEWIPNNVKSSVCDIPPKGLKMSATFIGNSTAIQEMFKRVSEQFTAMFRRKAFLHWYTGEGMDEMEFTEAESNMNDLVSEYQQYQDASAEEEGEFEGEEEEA

Assays:
[1] = biological target: PArkin Co-Regulated Gene (PACRG), Chlamydomonas reinhardtii (Chlamydomonas reinhardtii) (UniProt B1B601); experiment: cryo-EM structure; taxol-stabilised, 0.6 M NaCl-washed doublet microtubules isolated from Chlamydomonas flagella; 16 nm repeat map, focused refinement of the inner junction to 3.6 Å; atomic model PDB 6VE7
[2] = biological target: β-tubulin, Chlamydomonas reinhardtii (Chlamydomonas reinhardtii) (UniProt P04690); experiment: as above

- binding [1]: binds
- binding [2]: binds
B1: FAP20, Chlamydomonas reinhardtii (protein, UniProt A8IU92 1-190)
chain: MFKNAFQSGFLSVLYSIGSKPLEIWDKQVSNGHIKRITDADIQSSVLEIMGQNVSTTYITCPADPNKTLGIKLPFLVLIIKNLNKYFSFEVQVLDDKNVRRRFRASNYQSTTRVKPFICTMPMRLDSGWNQIQFNLSDFTRRAYGTNYIETLRVQVHANCRIRRIYFSDRLYSEEELPAEFKLFLPIQKS
